No constants are given. Whether binding was seen depends on the method and setting. Binding seen in cells or lysates may run through a third protein. Binding can be weak; no strength is given.
Biological target: GST-tagged pacsin 2 SH3 domain (human) (UniProt Q9UNF0)
Experiment: pull-down; GST–pacsin 2 SH3 or GST beads (10 µl bed) as bait; 170 µl extract of transfected HEK293T cells; 20 mM Tris-HCl pH 7.5, 150 mM NaCl, 10% glycerol, 5 mM EDTA, 2% Triton X-100; 1 h at 4°C; anti-GFP immunoblot; only the target purified

Protein sequences, listed by entry. Tags and fused reporters are not part of them. Residues count along the entry.
UniProt Q9UNF0, residues 426-486: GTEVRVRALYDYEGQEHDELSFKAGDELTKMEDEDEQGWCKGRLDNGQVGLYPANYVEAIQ

- binding: binds
Substance: GFP-tagged full-length N-cadherin, wild type (from UniProt P19022-1)
